This is one part of the list. These are further read-outs of the screen, such as a control signal, another cell line or another target. No call is given for them. Compounds called inactive in the main read-out are mostly missing here. Words in brackets tell the shape of the fitted curve; partial curves, single points and poor fits give uncertain potencies.
Assay: qHTS Assay for Lipid Storage Modulators in Drosophila S3 Cells;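 on cell number change: cells counted by Cell Tracker Red CMTPX staining in the red channel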
Details: BODIPY lipid droplet fluorescence, 18-24 h; for cell number change: measured here: cell count max response, cells fed with added oleic acid
How it was run: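 Laser-scanning cytometry quantifies lipid droplet accumulation (500–530 nm total intensity; droplet/cell object ratio) in oleic acid-fed (400 uM added) Drosophila S3 cells treated with a concentration series. 20 uM Triacsin C defined 100% inhibition.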

[1] = measured here: lipid fluorescence (Fed channel) AC50, cells fed with added oleic acid
[2] = measured here: cell number channel AC50, cells fed with added oleic acid

| Structure (SMILES) | AC50 [1] | cell number change [%] | AC50 [2] |
| --- | --- | --- | --- |
| Cc1ccc2nc(SCC(=O)Nc3cc(C)on3)c(C)cc2c1 | 6.51 µM [falling, single point] |  |  |
| Nc1ncnc(Nc2cc(Cl)cc(Cl)c2)c1[N+](=O)[O-] | 5.8 µM [rising, single point] |  |  |
| COc1ccc(-c2nnc(SCc3ccc(C(=O)O)cc3)o2)cc1OC |  | 14.2 |  |
| CCCOP(=O)(OCCC)C1(Nc2ccc(C)cc2)CCCCC1 |  | 74.9 |  |
| COc1ccc(C2=Nc3ccc(Br)cc3C(c3ccccc3)N2CC(=O)NN)cc1 (stereo unspecified) |  | 10.5 | 0.651 µM [rising, full curve, poor fit] |
| Cc1ccc(CS(=O)(=O)CCC(=O)NCc2ccccc2Cl)cc1 | 29.1 µM [rising, single point] | 5.5 |  |
| Cc1cccc(/C=N/NC(=O)c2ccccc2OCc2cccc(Br)c2)n1 |  | -21 |  |
| c1ccc(SCc2cn3cccnc3n2)nc1 | 4.11 µM [falling, single point] |  | 0.0058 µM [falling, full curve, poor fit] |
| Cc1cc(Cl)c(S(=O)(=O)NCC2CCCO2)cc1OCC(=O)NC1CCCCC1 (stereo unspecified) | 29.1 µM [rising, single point] |  |  |
| CCc1cc2c(=O)c(-c3cnn(-c4ccccc4)c3)c(C)oc2cc1OCC(=O)Nc1ccc(F)c(F)c1 |  | -4.78 |  |
| CCc1ccc(C2NC(=O)c3ccccc3O2)cc1 (stereo unspecified) | 29.1 µM [rising, single point] | 28.9 | 4.61 µM [rising, full curve, poor fit] |
| CCOP(=O)(OCC)C1NC(=O)N(c2ccccc2)C1=O (stereo unspecified) |  | 29.6 |  |
| CCc1ccc(C(=O)NNC(=O)c2cccc(S(=O)(=O)N3CCN(C)CC3)c2)cc1 |  | -25 | 0.092 µM [falling, full curve, poor fit] |
| O=C(C1CC1)N1N=C(c2ccc(Br)cc2)CC1(O)C(F)(F)F (stereo unspecified) | 18.4 µM [falling, single point] | -40.4 | 16.4 µM [falling, single point] |
| CCOc1ccc(-c2cc(N)n(S(=O)(=O)c3ccc(OC)c(OC)c3)n2)cc1 |  | 43.1 | 23.1 µM [rising, partial curve] |
| O=C1c2[nH]nc(-c3ccccc3O)c2C(c2cccc(Cl)c2)N1Cc1ccco1 (stereo unspecified) | 7.31 µM [falling, partial curve] | -63.6 | 32.6 µM [falling, single point] |
| CCNC(=O)CSc1nnc(CN2CCCCCC2=O)n1-c1ccccn1 |  | -3.52 | 3.26 µM [falling, single point] |
| O=C1c2cccc3cc([N+](=O)[O-])cc(c23)C(=O)N1CC1CCCO1 (stereo unspecified) |  | -45.1 | 29.1 µM [falling, single point] |
| CCN(CC)c1ccc(NC(=O)c2cncc(Br)c2)cc1 | 18.4 µM [rising, partial curve] | 117 | 23.1 µM [rising, single point] |
| O=C1CCCc2c1[nH]c1ccc(Br)cc21 | 14.6 µM [falling, partial curve] | -53.7 | 13 µM [falling, partial curve] |

| Structure (SMILES) | AC50 [1] | cell number change [%] | AC50 [2] |
| --- | --- | --- | --- |
| CC(C)OCCCNC(=O)c1c(N)n(/N=C/c2cccs2)c2nc3ccccc3nc12 | 2.91 µM [falling, full curve] |  | 5.17 µM [falling, single point] |
| CCn1c(SCC(=O)NC2=NCCS2)nnc1C(C)NC(=O)c1ccc(Cl)cc1 (stereo unspecified) | 29.1 µM [falling, single point] | 32.1 | 0.326 µM [rising, full curve, poor fit] |
| N=C1c2ccccc2CN1NC(=O)c1cccc(S(=O)(=O)N2CCCCC2)c1 | 6.51 µM [rising, single point] | -4.15 | 4.61 µM [rising, partial curve, poor fit] |
| CCCCCn1c(=O)c(C(=O)OCC)c(Cl)c2ccccc21 | 11.6 µM [rising, partial curve, poor fit] | 24.1 |  |
| O=C(NCCc1nc2ccccc2[nH]1)/C(=C/c1ccco1)NC(=O)c1ccccc1Br | 0.058 µM [rising, full curve, poor fit] | 20.2 |  |
| COc1ccc(-n2c(SCC(N)=O)nnc2-c2ccc(NS(=O)(=O)c3ccc(C)cc3)cc2)cc1 | 0.0651 µM [rising, full curve, poor fit] | 37.5 | 29.1 µM [rising, single point] |
| CCOC(=O)C(C)Sc1nc(-c2ccccn2)ncc1OC (stereo unspecified) | 1.03 µM [rising, full curve] | -10.3 | 1.03 µM [rising, full curve] |
| CCOc1ccc(C(=O)c2cnc3ccccc3c2N2CCN(CC)CC2)cc1 |  | 15 | 0.326 µM [rising, full curve, poor fit] |
| O=c1n(Cc2ccccc2)c2cc(Cl)cnc2n1Cc1ccccc1 | 29.1 µM [rising, single point] |  |  |
| COc1ccc2cc(CCNC(=O)c3cccs3)c(=O)[nH]c2c1 | 0.731 µM [falling, single point] |  |  |
| CC(C)C(NS(=O)(=O)c1ccccc1F)C(=O)N1CCc2ccccc2C1 (stereo unspecified) | 6.51 µM [falling, partial curve, poor fit] | 5.65 |  |
| COc1cc(OC)cc(C(=O)N[C@H](C(=O)Nc2nc3ccc(S(C)(=O)=O)cc3s2)C(C)C)c1 | 1.84 µM [rising, partial curve, poor fit] | 0.793 |  |
| CC1CN(C(=O)/C=C/c2ccccc2[N+](=O)[O-])CC(C)O1 (stereo unspecified) | 0.58 µM [falling, single point] | 0.709 |  |
| Cc1c(NC(=O)c2ccc(F)cc2)c(=O)n(-c2ccccc2)n1C | 0.0291 µM [rising, full curve] | 22.7 |  |
| COc1ccc(C(C)=O)cc1CS(=O)(=O)CC(=O)NCCc1c[nH]c2ccccc12 | 2.31 µM [rising, partial curve, poor fit] | -8.77 |  |
| COC(=O)[C@]1(CC(C)C)N[C@H](c2ccc(-c3ccc(OC)cc3)cc2)[C@@H]2C(=O)N(C)C(=O)[C@@H]21 | 29.1 µM [falling, single point] | 17.4 |  |
| CCOC(=O)C1CCN(C(=O)c2cc3c(-c4ccc(OC)c(OC)c4)nn(C)c3s2)CC1 | 6.51 µM [falling, single point] |  |  |
| CC(=O)n1cc(/C=C2/N=C(c3ccccc3)OC2=O)c2ccccc21 |  | 14.8 |  |
| O=C1Nc2ccc(F)cc2C12Nc1ccccc1-c1nnc(SCc3ccccc3F)nc1O2 (stereo unspecified) |  | -1.93 | 0.517 µM [rising, single point] |
| Cc1nonc1NC(=O)CSc1nnc(N)s1 |  | 12.2 |  |

Sorted by SMILES length (descending): part of the list above

| Structure (SMILES) | AC50 [1] | cell number change [%] | AC50 [2] |
| --- | --- | --- | --- |
| COc1cc(OC)cc(C(=O)N[C@H](C(=O)Nc2nc3ccc(S(C)(=O)=O)cc3s2)C(C)C)c1 | 1.84 µM [rising, partial curve, poor fit] | 0.793 |  |
| COc1ccc(-n2c(SCC(N)=O)nnc2-c2ccc(NS(=O)(=O)c3ccc(C)cc3)cc2)cc1 | 0.0651 µM [rising, full curve, poor fit] | 37.5 | 29.1 µM [rising, single point] |
| CCOC(=O)C1CCN(C(=O)c2cc3c(-c4ccc(OC)c(OC)c4)nn(C)c3s2)CC1 | 6.51 µM [falling, single point] |  |  |
| COc1ccc(C(C)=O)cc1CS(=O)(=O)CC(=O)NCCc1c[nH]c2ccccc12 | 2.31 µM [rising, partial curve, poor fit] | -8.77 |  |
| O=C1c2[nH]nc(-c3ccccc3O)c2C(c2cccc(Cl)c2)N1Cc1ccco1 (stereo unspecified) | 7.31 µM [falling, partial curve] | -63.6 | 32.6 µM [falling, single point] |
| Cc1cc(Cl)c(S(=O)(=O)NCC2CCCO2)cc1OCC(=O)NC1CCCCC1 (stereo unspecified) | 29.1 µM [rising, single point] |  |  |
| N=C1c2ccccc2CN1NC(=O)c1cccc(S(=O)(=O)N2CCCCC2)c1 | 6.51 µM [rising, single point] | -4.15 | 4.61 µM [rising, partial curve, poor fit] |
| CC(C)C(NS(=O)(=O)c1ccccc1F)C(=O)N1CCc2ccccc2C1 (stereo unspecified) | 6.51 µM [falling, partial curve, poor fit] | 5.65 |  |
| O=C(C1CC1)N1N=C(c2ccc(Br)cc2)CC1(O)C(F)(F)F (stereo unspecified) | 18.4 µM [falling, single point] | -40.4 | 16.4 µM [falling, single point] |
| COc1ccc(-c2nnc(SCc3ccc(C(=O)O)cc3)o2)cc1OC |  | 14.2 |  |
| O=c1n(Cc2ccccc2)c2cc(Cl)cnc2n1Cc1ccccc1 | 29.1 µM [rising, single point] |  |  |
| CCOP(=O)(OCC)C1NC(=O)N(c2ccccc2)C1=O (stereo unspecified) |  | 29.6 |  |
| CCOC(=O)C(C)Sc1nc(-c2ccccn2)ncc1OC (stereo unspecified) | 1.03 µM [rising, full curve] | -10.3 | 1.03 µM [rising, full curve] |

Additional entries:

| Structure (SMILES) | AC50 [1] | cell number change [%] | AC50 [2] |
| --- | --- | --- | --- |
| Cc1cc(C)cc(NC(=O)CSc2nc(=O)n3cc(C)ccc3n2)c1 | 0.326 µM [rising, full curve] | 22.2 | 0.092 µM [rising, full curve, poor fit] |
| Cc1ccc(OCC(=O)Nc2sc3c(c2C#N)CCC3)cc1 |  | -32.2 | 25.9 µM [falling, single point] |
| O=C(COc1ccccc1)NCC(=O)NC1CCCCC1 | 1.3 µM [rising, full curve] | -20.4 | 1.64 µM [rising, partial curve] |
| O=C(CSc1nnc(CNC(=O)c2ccccc2)o1)Nc1ccc2c(c1)OCCO2 | 29.1 µM [rising, single point] | 24.3 |  |
| Cc1nc2ccc([N+](=O)[O-])cc2[nH]1 |  | -43.8 | 25.9 µM [falling, single point] |
| Cc1ccc(Sc2nnc(Cc3ccccc3)c3ccccc23)cc1 |  |  | 6.51 µM [rising, single point] |
| COC(=O)CC1(c2ccccc2)C(=O)c2ccccc2C1=O | 0.326 µM [falling, partial curve, poor fit] | -95 | 0.103 µM [falling, full curve, poor fit] |
| CCOC(=O)c1c(-c2ccc(C)cc2C)csc1NC(=O)CSc1nnnn1C | 4.61 µM [falling, full curve, poor fit] | 5.81 | 2.06 µM [rising, partial curve] |
| Cn1c(=O)oc2cc(S(=O)(=O)N3CCCC(C(=O)Nc4ccc5c(c4)OCCO5)C3)ccc21 (stereo unspecified) |  | 9.71 |  |
| CC(C)[C@H](NC(=O)N1CCn2c1nc1ccccc12)C(=O)N[C@@H](C(=O)O)c1ccccc1 |  | 31.7 | 25.9 µM [rising, partial curve, poor fit] |
| Cc1nc(NCCc2ccc(S(N)(=O)=O)cc2)c2c(C)c(C)sc2n1 |  | -3.33 | 0.461 µM [rising, partial curve, poor fit] |
| COc1cccc(/C=N/N2C(=O)CSC2=S)c1O | 32.6 µM [rising, single point] |  | 1.16 µM [rising, full curve] |
| Cc1ccc(OCCC(=O)Nc2ccccc2C(=O)N2CCCCC2)cc1 |  | 26.5 |  |
| Nn1c(COc2ccccc2F)nnc1SCC(=O)NC1CC1 |  | -3.5 |  |
| COc1ccc(OCC(=O)NC(=S)Nc2ccc3c4c(cccc24)CC3)cc1 | 0.291 µM [rising, partial curve] |  |  |
| CC(Sc1nnnn1C)C(=O)Nc1ccc(Oc2ccccc2)cc1 (stereo unspecified) | 29.1 µM [falling, single point] | 0.553 |  |
| CC(C)Cn1c(-c2csc(C(C)C)c2)n[nH]c1=S | 29.1 µM [falling, single point] | -21.5 |  |
| COc1ccc(N(CC(=O)NCC2CCCO2)C(=O)CCC(=O)Nc2cc(C)on2)cc1OC (stereo unspecified) | 5.8 µM [falling, partial curve, poor fit] | -12.4 |  |

Source: PubChem BioAssay AID2685 (National Center for Advancing Translational Sciences (NCATS), 2010)
